The assay concerns the target Capicua homolog (Cic) (mouse (endogenous in cerebellum)) (UniProt Q924A2). Kind of assay: co-IP; cerebellar extracts of wild-type, Atxn1-/- and Atxn1-/-; Atxn1L dp/+ mice in TST buffer (10 mM Tris-HCl pH 7.5, 0.9% NaCl, 0.05% Tween 20) diluted in PBS; precipitated overnight at 4°C with polyclonal guinea pig anti-Cic serum on protein A Sepharose (pre-immune serum as control); western blot for Atxn1L.

Sequences of proteins named here, by UniProt entry; tags and fusion partners are left off.
UniProt Q924A2: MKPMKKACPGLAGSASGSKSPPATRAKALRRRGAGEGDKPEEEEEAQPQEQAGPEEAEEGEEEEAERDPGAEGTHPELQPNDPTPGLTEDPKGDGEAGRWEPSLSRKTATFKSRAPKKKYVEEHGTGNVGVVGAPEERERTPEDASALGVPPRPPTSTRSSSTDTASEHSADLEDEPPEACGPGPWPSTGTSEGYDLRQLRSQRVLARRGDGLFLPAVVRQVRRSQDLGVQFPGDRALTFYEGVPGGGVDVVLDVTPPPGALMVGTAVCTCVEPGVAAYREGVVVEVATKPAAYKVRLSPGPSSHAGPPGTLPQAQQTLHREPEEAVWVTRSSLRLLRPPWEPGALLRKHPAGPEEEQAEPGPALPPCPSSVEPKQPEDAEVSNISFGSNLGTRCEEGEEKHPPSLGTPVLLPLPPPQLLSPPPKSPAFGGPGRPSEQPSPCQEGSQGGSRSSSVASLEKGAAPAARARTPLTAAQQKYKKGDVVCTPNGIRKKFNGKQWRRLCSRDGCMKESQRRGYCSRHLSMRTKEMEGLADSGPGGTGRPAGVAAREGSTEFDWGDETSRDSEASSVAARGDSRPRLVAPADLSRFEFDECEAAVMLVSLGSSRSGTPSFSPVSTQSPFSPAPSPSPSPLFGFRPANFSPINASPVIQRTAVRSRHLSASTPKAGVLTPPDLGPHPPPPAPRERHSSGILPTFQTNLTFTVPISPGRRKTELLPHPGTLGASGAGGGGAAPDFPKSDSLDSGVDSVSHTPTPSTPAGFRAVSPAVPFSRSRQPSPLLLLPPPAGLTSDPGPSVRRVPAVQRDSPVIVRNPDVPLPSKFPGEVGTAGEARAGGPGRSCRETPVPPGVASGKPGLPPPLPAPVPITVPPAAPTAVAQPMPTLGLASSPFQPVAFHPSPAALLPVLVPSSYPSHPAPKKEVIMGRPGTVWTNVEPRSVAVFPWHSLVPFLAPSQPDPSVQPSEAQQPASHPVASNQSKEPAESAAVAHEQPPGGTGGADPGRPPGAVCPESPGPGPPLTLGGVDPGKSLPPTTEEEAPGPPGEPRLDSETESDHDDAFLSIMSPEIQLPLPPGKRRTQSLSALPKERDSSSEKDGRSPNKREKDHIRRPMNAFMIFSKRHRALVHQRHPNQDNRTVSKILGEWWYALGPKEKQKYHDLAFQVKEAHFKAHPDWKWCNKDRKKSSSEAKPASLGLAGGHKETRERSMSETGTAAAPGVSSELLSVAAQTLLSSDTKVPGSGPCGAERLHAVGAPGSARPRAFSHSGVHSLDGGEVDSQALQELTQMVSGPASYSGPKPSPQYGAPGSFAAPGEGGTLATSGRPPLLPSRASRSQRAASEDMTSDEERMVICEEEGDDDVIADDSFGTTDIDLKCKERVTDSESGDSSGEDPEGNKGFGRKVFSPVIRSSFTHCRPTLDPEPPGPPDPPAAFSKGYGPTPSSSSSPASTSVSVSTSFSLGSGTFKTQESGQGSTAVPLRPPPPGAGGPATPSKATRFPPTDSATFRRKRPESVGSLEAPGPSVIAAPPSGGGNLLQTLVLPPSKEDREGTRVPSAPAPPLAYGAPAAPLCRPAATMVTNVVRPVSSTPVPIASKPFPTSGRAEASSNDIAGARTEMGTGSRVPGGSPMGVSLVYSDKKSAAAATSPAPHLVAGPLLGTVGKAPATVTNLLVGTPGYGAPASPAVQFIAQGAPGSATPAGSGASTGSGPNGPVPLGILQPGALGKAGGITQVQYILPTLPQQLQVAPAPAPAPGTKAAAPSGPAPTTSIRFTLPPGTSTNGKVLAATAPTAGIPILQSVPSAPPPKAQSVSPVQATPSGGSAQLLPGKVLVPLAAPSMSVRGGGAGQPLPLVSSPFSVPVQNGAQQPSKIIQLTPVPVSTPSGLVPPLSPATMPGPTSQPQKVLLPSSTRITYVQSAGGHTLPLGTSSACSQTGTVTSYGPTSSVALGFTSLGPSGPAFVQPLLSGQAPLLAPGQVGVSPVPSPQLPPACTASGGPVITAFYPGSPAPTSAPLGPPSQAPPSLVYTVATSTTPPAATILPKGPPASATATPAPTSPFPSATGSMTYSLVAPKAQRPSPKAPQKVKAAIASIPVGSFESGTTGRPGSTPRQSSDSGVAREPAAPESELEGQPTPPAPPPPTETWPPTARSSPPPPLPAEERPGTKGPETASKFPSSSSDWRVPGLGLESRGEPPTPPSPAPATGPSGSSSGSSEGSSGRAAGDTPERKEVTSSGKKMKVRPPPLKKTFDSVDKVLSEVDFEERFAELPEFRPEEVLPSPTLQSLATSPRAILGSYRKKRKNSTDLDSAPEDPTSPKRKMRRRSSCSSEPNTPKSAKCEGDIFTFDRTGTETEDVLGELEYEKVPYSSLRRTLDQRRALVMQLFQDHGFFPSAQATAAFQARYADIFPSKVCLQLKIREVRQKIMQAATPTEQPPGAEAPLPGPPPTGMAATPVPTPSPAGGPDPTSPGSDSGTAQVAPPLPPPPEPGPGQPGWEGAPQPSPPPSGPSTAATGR

Binding data for one molecule are collected here from paper PMC2900305.

No constants are given. Whether binding was seen depends on the method and setting. Binding seen in cells or lysates may run through a third protein. Some entries that bind do so weakly or less than the wild type.

B1: Ataxin-1-Like (protein, UniProt P0C7T6 1-687)
chain: MKPVHERSQECLPPKKRDLPVTSEDMGRTTSCSTNHTPSSDASEWSRGVVVAGQSQTGARVSLGGDGTEAITGLTVDQYGMLYKVAVPPATFSPTGLPSVVNMSPLPPTFNVASSLIQHPGIHYPPVHYAQLPSTSLQFIGSPYSLPYAVPPNFLPSPLLSPSANLATTHLPHFVPYASLLAEEATPPPQAASPAQSFNKSSSATSPPGQLPHHSNTQPLDLAPGRMPIYYQMSRLPAGYTLHETSTAGASPILTPQEGQSALEAAAANGQRQRERNVRRESEALDSASSKGESQGLVPVVECMADGQLFSGSQTPRVEVAAPAHRGTPDTDLEVQRVVGALASQDYRVVAAQRKDEPSPLNLSHHNLDHQGEGRGSARNPTELVEKSQARVFYPQSHQEPVKHRPLPKAMVVANGNLVPTGTDPSLLPVGSEILVASSLDLQARATFPDKEPTPPPVTSSHLPSHFMKGAIIQLATGELKRVEDLQTQDFVRSAEVSGGLKIDSSTVVDIQESQWPGFVMLHFVVGEQQSKVSIEVPPEHPFFVYGQGWSSCSPGRTAQLFSLPCHRLQVGDVCISISLQSLNSNSVSQASCAPPGQLGTPRERPERTVLGPRDLCDSEGKNQPSGEGSRVGEPSQPEPGAQACWPAPSFQRFSMQGEEARAAMLRPSFIPQEVKLSIEGRSNAGK
Consider B1, for which the binding entry is recorded as “binds”.
